# Data as given in the supplement of paper PMC10849652.
# Protein sequences, listed by entry. Tags and fused reporters are not part of them. Lines headed by an entry give the natural chain unless they say otherwise; changes in a name come on top.
# UniProt P48454, whole entry, looked up: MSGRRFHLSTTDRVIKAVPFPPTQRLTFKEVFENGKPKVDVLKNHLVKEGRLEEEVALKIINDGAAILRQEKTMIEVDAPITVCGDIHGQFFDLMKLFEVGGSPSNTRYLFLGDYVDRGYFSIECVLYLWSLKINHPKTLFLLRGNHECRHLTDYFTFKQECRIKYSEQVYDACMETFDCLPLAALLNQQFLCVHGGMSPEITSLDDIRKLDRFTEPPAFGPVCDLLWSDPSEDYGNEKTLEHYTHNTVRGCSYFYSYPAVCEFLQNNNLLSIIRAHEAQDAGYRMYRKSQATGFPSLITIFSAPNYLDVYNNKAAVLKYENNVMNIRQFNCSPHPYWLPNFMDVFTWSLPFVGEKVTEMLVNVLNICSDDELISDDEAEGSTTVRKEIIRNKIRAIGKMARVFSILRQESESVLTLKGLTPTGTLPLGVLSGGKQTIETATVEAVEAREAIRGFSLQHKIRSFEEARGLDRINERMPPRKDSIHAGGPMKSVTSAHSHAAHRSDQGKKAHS
# UniProt Q8TAE6: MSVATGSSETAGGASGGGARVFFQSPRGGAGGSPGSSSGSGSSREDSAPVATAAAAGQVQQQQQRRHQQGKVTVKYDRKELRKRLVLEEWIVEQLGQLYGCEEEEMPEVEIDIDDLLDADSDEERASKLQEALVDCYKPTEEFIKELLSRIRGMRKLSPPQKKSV
# UniProt Q86WR7: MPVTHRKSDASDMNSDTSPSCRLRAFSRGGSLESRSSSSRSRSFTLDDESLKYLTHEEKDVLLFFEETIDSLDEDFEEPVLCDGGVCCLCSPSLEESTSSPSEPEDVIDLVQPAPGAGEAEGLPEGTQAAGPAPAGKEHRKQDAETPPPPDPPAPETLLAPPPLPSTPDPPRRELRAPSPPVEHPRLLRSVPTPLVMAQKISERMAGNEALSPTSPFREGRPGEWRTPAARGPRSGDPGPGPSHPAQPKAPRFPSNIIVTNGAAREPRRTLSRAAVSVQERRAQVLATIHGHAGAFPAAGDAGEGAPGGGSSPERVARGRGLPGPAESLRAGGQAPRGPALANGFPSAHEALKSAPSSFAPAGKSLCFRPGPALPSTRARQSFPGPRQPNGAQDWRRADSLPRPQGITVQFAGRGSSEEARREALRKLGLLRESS
# UniProt P41236: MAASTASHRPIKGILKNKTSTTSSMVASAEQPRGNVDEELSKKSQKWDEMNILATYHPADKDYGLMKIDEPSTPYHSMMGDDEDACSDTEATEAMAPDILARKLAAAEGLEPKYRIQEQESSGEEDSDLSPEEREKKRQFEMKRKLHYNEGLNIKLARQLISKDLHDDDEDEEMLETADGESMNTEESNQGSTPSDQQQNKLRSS
# UniProt Q4J6C6, whole entry, looked up: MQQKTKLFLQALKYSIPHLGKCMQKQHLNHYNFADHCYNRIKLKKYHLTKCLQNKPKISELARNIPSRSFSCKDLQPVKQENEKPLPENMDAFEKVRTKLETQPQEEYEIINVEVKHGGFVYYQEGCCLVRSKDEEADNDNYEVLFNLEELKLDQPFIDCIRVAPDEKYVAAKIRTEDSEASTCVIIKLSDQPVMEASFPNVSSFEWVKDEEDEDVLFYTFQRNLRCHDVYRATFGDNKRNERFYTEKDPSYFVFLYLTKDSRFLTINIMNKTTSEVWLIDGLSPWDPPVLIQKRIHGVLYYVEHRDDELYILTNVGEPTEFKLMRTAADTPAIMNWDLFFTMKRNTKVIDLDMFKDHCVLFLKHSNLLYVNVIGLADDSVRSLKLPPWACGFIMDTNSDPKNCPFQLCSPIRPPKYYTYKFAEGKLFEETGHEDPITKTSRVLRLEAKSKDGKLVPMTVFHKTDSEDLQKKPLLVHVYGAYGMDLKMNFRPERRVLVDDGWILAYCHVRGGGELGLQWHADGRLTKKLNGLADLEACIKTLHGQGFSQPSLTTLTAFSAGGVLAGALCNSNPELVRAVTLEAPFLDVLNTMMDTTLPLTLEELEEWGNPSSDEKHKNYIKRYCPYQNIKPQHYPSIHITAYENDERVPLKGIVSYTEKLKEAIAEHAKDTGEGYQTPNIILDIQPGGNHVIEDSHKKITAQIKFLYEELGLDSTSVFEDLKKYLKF
# UniProt P63098, whole entry, looked up: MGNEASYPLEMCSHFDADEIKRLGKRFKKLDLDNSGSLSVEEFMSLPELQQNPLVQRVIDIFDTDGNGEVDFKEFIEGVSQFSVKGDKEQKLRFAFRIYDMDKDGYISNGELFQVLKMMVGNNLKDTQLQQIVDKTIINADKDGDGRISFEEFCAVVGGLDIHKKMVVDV
# UniProt O00743: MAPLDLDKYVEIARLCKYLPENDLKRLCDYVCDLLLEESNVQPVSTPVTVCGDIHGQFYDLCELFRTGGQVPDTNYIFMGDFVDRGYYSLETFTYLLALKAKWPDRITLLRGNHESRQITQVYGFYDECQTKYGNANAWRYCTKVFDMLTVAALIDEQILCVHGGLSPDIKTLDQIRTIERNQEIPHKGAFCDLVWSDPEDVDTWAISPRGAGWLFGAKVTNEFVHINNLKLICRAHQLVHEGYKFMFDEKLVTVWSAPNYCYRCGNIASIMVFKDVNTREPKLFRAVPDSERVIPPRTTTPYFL
# UniProt P63151: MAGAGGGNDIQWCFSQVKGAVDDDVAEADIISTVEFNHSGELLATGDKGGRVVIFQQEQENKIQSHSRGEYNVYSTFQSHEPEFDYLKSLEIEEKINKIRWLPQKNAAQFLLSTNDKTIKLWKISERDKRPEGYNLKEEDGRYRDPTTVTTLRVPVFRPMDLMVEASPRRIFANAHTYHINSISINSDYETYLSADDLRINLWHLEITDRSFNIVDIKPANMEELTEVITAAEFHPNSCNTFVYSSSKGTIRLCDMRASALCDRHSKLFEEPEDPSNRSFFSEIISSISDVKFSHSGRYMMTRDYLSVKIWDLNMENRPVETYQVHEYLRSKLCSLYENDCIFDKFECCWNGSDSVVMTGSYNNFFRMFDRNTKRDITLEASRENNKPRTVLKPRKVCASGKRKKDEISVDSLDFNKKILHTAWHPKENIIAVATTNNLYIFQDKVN
# UniProt Q96M27: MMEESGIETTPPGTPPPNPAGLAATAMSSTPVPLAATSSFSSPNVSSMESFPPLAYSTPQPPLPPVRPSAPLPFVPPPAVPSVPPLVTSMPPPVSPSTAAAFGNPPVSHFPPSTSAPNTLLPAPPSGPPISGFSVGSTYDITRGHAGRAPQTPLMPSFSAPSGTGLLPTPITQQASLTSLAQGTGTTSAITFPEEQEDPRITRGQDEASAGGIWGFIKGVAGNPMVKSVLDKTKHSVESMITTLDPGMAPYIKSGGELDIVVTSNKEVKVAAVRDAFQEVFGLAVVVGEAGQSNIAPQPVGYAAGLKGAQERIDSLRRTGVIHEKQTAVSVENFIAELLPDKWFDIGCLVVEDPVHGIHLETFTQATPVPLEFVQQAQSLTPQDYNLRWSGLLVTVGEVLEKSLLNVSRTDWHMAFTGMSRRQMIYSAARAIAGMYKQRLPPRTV
# UniProt Q9Y6M0: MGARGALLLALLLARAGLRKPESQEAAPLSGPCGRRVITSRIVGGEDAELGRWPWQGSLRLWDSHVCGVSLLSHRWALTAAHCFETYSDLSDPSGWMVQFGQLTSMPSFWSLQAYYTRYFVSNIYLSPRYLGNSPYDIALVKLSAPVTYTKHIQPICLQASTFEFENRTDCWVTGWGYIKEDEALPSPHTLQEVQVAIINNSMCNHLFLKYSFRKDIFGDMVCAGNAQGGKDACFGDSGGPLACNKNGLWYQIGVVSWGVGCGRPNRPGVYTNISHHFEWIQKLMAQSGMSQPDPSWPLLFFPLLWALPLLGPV
# UniProt O14974: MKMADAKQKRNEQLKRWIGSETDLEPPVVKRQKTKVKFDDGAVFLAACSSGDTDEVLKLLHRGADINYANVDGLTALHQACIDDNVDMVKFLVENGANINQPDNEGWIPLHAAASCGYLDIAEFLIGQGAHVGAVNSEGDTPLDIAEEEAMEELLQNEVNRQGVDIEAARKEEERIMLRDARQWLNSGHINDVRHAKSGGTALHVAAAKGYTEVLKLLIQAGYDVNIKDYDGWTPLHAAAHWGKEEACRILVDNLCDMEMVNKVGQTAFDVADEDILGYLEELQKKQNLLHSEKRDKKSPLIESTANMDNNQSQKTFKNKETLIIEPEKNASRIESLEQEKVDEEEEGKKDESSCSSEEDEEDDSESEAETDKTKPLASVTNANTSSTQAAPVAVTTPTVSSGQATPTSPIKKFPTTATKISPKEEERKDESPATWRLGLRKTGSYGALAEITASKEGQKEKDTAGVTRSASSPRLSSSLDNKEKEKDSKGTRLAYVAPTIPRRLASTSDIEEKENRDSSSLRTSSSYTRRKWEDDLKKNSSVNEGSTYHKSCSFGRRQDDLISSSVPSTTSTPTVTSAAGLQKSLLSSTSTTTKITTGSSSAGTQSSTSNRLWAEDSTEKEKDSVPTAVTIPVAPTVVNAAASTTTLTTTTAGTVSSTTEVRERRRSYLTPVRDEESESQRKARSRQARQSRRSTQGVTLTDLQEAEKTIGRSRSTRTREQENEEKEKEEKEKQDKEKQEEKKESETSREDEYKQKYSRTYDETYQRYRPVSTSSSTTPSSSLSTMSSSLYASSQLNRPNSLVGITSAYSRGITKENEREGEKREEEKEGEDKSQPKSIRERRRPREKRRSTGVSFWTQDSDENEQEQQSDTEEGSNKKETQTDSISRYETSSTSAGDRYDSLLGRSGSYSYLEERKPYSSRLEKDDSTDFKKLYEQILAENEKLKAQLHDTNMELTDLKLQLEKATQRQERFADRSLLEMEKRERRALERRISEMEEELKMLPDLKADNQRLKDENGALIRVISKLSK
# UniProt Q9Y570: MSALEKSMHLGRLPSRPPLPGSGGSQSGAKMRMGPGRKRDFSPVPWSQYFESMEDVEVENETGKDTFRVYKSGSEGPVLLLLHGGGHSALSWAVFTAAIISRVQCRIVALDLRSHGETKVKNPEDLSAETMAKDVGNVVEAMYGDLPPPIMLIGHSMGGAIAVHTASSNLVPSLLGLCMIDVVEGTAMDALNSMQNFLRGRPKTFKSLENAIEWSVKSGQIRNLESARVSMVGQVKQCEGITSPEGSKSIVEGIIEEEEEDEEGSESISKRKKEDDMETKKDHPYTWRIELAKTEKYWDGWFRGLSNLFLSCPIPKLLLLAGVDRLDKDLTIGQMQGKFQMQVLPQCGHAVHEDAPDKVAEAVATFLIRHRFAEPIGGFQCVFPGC
# UniProt P60510: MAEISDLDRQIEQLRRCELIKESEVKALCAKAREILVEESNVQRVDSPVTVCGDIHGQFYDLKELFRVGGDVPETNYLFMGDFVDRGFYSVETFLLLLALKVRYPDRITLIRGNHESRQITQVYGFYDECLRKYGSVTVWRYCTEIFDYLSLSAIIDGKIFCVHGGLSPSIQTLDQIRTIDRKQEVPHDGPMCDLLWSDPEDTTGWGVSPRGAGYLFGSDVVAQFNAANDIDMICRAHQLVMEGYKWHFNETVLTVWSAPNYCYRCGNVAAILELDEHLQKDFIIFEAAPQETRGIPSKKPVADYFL
# UniProt P67775, whole entry, looked up: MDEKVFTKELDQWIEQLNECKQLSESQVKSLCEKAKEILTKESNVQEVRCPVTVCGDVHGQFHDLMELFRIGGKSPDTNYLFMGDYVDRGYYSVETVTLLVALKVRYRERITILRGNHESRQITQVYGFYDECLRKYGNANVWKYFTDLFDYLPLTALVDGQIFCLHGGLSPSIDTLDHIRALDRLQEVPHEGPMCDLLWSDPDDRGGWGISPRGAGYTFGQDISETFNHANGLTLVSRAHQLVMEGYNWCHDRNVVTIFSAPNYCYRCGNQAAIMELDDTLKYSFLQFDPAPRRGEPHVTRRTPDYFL
# UniProt Q15435: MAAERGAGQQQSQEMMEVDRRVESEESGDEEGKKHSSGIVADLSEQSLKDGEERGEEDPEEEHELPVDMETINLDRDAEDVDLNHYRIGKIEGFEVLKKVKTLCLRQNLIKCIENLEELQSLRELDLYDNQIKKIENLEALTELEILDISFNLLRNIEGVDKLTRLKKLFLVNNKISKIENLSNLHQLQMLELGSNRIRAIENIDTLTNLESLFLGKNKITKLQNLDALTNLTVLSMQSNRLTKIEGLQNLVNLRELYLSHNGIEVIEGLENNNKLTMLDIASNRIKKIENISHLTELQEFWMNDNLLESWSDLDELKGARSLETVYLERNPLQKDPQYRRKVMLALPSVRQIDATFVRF
# This is one part of the list. Residues, ends and D or L forms follow the SMILES beside them. *: point of attachment. Cbz = O=C(OCc1ccccc1)*
# Assays:
# Assay in all cases: log2 fold change, soluble protein after heating vs DMSO (PISA); higher = thermal stabilisation; K562 cells, 10 uM, 30 min; active = over 0.2 and 3.5 SD of the protein, either way, in both replicates (recomputed)
# erlotinib = compound: C#Cc1cccc(Nc2ncnc3cc(OCCOC)c(OCCOC)cc23)c1 [erlotinib]
# Procedure, shortened: (§1)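 Values are thermal stability changes relative to control samples and are taken from duplicates. They are stated as log2 fold changes. Before quantification by TMTpro 16plex LC-MS/MS with equalised channel sums, K562 cells at 2×10^6 cells/mL were treated with 10 μM compound for 30 min, heated in aliquots for 3 min across 48°C-58°C, pooled, extracted in PBS with 0.5% NP-40 at 4°C, and centrifuged at 21,000xg for 90 min to give the soluble supernatant.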
# [1] = compound: C/C(=N\NC(=O)C1=CC(=CC=C1)S(=O)(=O)N2CCOCC2)/C3=C(C=CC(=C3)Cl)O
# Procedure, shortened: as §1
# [2] = compound: C1=CC(=C(C=C1Cl)C2=NC3=NC=CN=C3C(=N2)NC4=CC=NC=C4)F
# Procedure, shortened: as §1
# [3] = compound: C1=CC(=CC=C1C2=NC3=C(N2)C=C(C=C3)C(=O)N)OC4=CC=C(C=C4)Cl
# Procedure, shortened: as §1
# [4] = compound: C1=CC2=C(C=CC(=C2)/C=C\3/C(=O)NC(=NCC4=CC=CS4)S3)N=C1
# Procedure, shortened: as §1
# [5] = compound: C1=CC2=NC=CN=C2C=C1/C=C/3\C(=O)NC(=O)S3
# Procedure, shortened: as §1
# [6] = compound: C1=CC=C(C=C1)C2=NC(=C(N2)C3=CC=NC=C3)C4=CC(=C(C=C4)Cl)O
# Procedure, shortened: as §1
# [7] = compound: C1=CC=C2C(=C1)C3=NNC4=CC=CC(=C43)C2=O
# Procedure, shortened: as §1
# [8] = compound: C1CCN(C1)C(=O)NC2=CC=CC(=C2)NC3=NC=C(C(=N3)NCCC4=CN=CN4)Br
# Procedure, shortened: as §1
# [9] = compound: C1CN(CCC1(CC2=CC=C(C=C2)Cl)N)C3=NC=NC4=C3C=CN4
# Procedure, shortened: as §1
# IRAK-1-4 Inhibitor I = compound: C1COCCN1CCN2C3=CC=CC=C3N=C2NC(=O)C4=CC(=CC=C4)[N+](=O)[O-] [IRAK-1-4 Inhibitor I]
# Procedure, shortened: as §1
# ibrutinib = compound: C=CC(=O)N1CCC[C@@H](n2nc(-c3ccc(Oc4ccccc4)cc3)c3c(N)ncnc32)C1 [ibrutinib]
# Procedure, shortened: as §1
# [10] = compound: CC(=O)c1cnc2ccc(-c3cc(Cl)c(O)c(Cl)c3)nc2c1N[C@H]1CC[C@H](CN(C)C)CC1
# Procedure, shortened: as §1
# ralimetinib = compound: CC(C)(C)Cn1c(N)nc2ccc(-c3[nH]c(C(C)(C)C)nc3-c3ccc(F)cc3)nc21 [ralimetinib]
# Procedure, shortened: as §1
# [11] = compound: CC(C)(O)CC(=O)NCCn1ccc2ncnc(Nc3ccc(Oc4cccc(C(F)(F)F)c4)c(Cl)c3)c21
# Procedure, shortened: as §1
# [12] = compound: CC(C)C1=C2N=C(C=C(N2N=C1)NCC3=CC=CC=C3)NCCCCCCN
# Procedure, shortened: as §1
# [13] = compound: CC(C)C[C@@H](C=O)NC(=O)[C@H](CC(C)C)NC(=O)[C@H](CC(C)C)NC(=O)OCc1ccccc1
# Procedure, shortened: as §1
# pinometostat = compound: CC(C)N(C[C@H]1O[C@@H](n2cnc3c(N)ncnc32)[C@H](O)[C@@H]1O)[C@H]1C[C@@H](CCc2nc3cc(C(C)(C)C)ccc3[nH]2)C1 [pinometostat]
# Procedure, shortened: as §1
# [14] = compound: CC1=C(C(CC(=O)N1)C2=CC=C(C=C2)C(F)(F)F)C(=O)NC3=C(C=C4C(=C3)C=NN4)F
# Procedure, shortened: as §1
# [15] = compound: CC1=C(C2=C(C=C1)C(=O)C3=CC=CC=C3N2CCCN)C
# Procedure, shortened: as §1
Target,log2 fold change (erlotinib),log2 fold change [1],log2 fold change [2],log2 fold change [3],log2 fold change [4],log2 fold change [5],log2 fold change [6],log2 fold change [7],log2 fold change [8],log2 fold change [9],log2 fold change (IRAK-1-4 Inhibitor I),log2 fold change (ibrutinib),log2 fold change [10],log2 fold change (ralimetinib),log2 fold change [11],log2 fold change [12],log2 fold change [13],log2 fold change (pinometostat),log2 fold change [14],log2 fold change [15]
PRKCSH (UniProt P14314),inactive: -0.033,inactive: -0.009,inactive: 0.071,inactive: -0.027,inactive: -0.06,inactive: 0.008,inactive: 0.012,inactive: 0.053,inactive: -0.054,inactive: 0.011,inactive: 0.02,inactive: -0.019,inactive: -0.008,inactive: 0.022,inactive: 0.053,inactive: -0.017,inactive: -0.057,inactive: -0.041,inactive: 0.016,inactive: -0.022
PPP3CC isoform 3 (UniProt P48454),inactive: -0.02,inactive: 0.007,inactive: 0.072,inactive: -0.036,inactive: -0.018,inactive: -0.015,inactive: -0.014,inactive: 0.099,inactive: 0.026,inactive: 0.004,inactive: 0.03,inactive: 0.013,inactive: -0.043,inactive: -0.081,inactive: -0.101,inactive: 0.021,inactive: -0.004,inactive: -0.098,inactive: -0.033,inactive: 0.024
PPP1R14C (UniProt Q8TAE6),inactive: 0.202,inactive: 0.097,inactive: -0.241,inactive: 0.18,inactive: -0.078,inactive: 0.05,inactive: 0.062,inactive: 0,inactive: -0.033,inactive: 0.162,inactive: -0.015,inactive: 0.064,inactive: 0.055,inactive: -0.024,inactive: 0.05,inactive: -0.009,inactive: -0.113,inactive: 0,inactive: 0.156,inactive: 0.061
PROSER2 (UniProt Q86WR7),inactive: 0.042,inactive: 0.047,inactive: 0.048,inactive: -0.003,inactive: -0.06,inactive: -0.004,inactive: -0.044,inactive: 0.079,inactive: -0.076,inactive: 0.019,inactive: 0.034,inactive: -0.11,inactive: -0.064,inactive: 0.073,inactive: -0.167,inactive: 0.069,inactive: 0.04,inactive: -0.005,inactive: 0.051,inactive: -0.057
PPP1R2 (UniProt P41236),inactive: -0.001,inactive: -0.002,inactive: -0.02,inactive: 0,inactive: -0.023,inactive: -0.006,inactive: -0.049,inactive: -0.052,inactive: 0.022,inactive: 0.041,inactive: 0.049,inactive: 0.005,inactive: 0.012,inactive: -0.083,inactive: 0.172,inactive: 0.049,inactive: -0.023,inactive: -0.038,inactive: 0.032,inactive: -0.04
PREPL (UniProt Q4J6C6),inactive: 0.008,inactive: 0.011,inactive: 0.009,inactive: 0.032,inactive: 0.027,inactive: 0,inactive: 0.002,inactive: 0.011,inactive: -0.005,inactive: 0.013,inactive: 0.065,inactive: 0.014,inactive: -0.051,inactive: -0.029,inactive: -0.055,inactive: -0.046,inactive: 0.024,inactive: 0.017,inactive: -0.035,inactive: 0.017
PPP3R1 (UniProt P63098),inactive: -0.02,inactive: 0.035,inactive: 0.02,inactive: -0.039,inactive: -0.017,inactive: 0.071,inactive: -0.001,inactive: -0.015,inactive: 0.038,inactive: -0.037,inactive: 0.021,inactive: 0.031,inactive: 0.03,inactive: 0.034,inactive: -0.1,inactive: -0.12,inactive: 0.075,inactive: -0.044,inactive: 0.015,inactive: -0.14
PPP6C isoform 3 (UniProt O00743),inactive: -0.032,inactive: -0.039,inactive: 0.005,inactive: -0.013,inactive: 0.006,inactive: 0.031,inactive: -0.032,inactive: -0.03,inactive: 0.03,inactive: 0.012,inactive: 0.051,inactive: 0.032,inactive: 0.031,inactive: -0.026,inactive: 0.008,inactive: 0.023,inactive: 0.012,inactive: -0.007,inactive: 0.025,inactive: -0.114
PPP2R2A isoform 2 (UniProt P63151),inactive: -0.007,inactive: 0.027,inactive: 0.06,inactive: -0.004,inactive: 0.041,inactive: -0.01,inactive: -0.047,inactive: -0.016,inactive: -0.012,inactive: 0.063,inactive: 0.011,inactive: 0.011,inactive: -0.041,inactive: -0.093,inactive: -0.015,inactive: 0.052,inactive: -0.055,inactive: -0.037,inactive: -0.028,inactive: -0.012
PRRC1 (UniProt Q96M27),inactive: 0.01,inactive: -0.034,inactive: -0.018,inactive: -0.017,inactive: 0.005,inactive: 0.021,inactive: -0.053,inactive: -0.038,inactive: 0.007,inactive: 0.056,inactive: 0.016,inactive: 0.023,inactive: 0.006,inactive: -0.021,inactive: 0.013,inactive: 0.041,inactive: 0.004,inactive: -0.013,inactive: 0.009,inactive: 0.01
PRSS21 (UniProt Q9Y6M0),inactive: -0.031,inactive: -0.047,inactive: 0.002,inactive: -0.072,inactive: 0.038,inactive: -0.006,inactive: 0.006,inactive: 0.054,inactive: -0.009,inactive: -0.002,inactive: -0.059,inactive: 0.026,inactive: -0.018,inactive: 0.013,inactive: -0.015,inactive: -0.084,inactive: -0.028,inactive: 0.044,inactive: -0.036,inactive: 0.004
PPP1R12A (UniProt O14974),inactive: 0.004,inactive: 0.044,inactive: 0.023,inactive: 0.023,inactive: -0.188,inactive: 0,inactive: 0.035,inactive: -0.067,inactive: -0.074,active: -0.485,inactive: -0.013,inactive: -0.022,active: -0.666,inactive: 0,inactive: 0,inactive: -0.119,inactive: -0.014,inactive: -0.003,active: -0.514,inactive: -0.01
PPME1 (UniProt Q9Y570),inactive: 0.012,inactive: 0.065,inactive: 0.042,inactive: 0,inactive: 0.03,inactive: 0.009,inactive: 0.035,inactive: 0.009,inactive: -0.037,inactive: 0.026,inactive: 0.036,inactive: -0.019,inactive: -0.034,inactive: -0.067,inactive: 0,inactive: 0.053,inactive: -0.058,inactive: -0.01,inactive: -0.014,inactive: 0.038
PPP4C (UniProt P60510),inactive: 0.048,inactive: -0.027,inactive: 0.006,inactive: 0.014,inactive: 0.022,inactive: 0.031,inactive: 0.059,inactive: 0.007,inactive: -0.02,inactive: 0.047,inactive: 0.057,inactive: 0.023,inactive: -0.005,inactive: -0.044,inactive: 0.007,inactive: 0.039,inactive: -0.029,inactive: 0.027,inactive: 0.078,inactive: -0.006
PPP2CA (UniProt P67775),inactive: -0.119,inactive: 0.087,inactive: 0.068,inactive: 0.099,inactive: 0.018,inactive: 0.006,inactive: -0.001,inactive: 0.01,inactive: -0.03,inactive: 0.053,inactive: 0.08,inactive: -0.011,inactive: -0.001,inactive: -0.045,inactive: 0.057,inactive: 0.017,inactive: -0.044,inactive: -0.089,inactive: 0.01,inactive: -0.006
PPP1R7 (UniProt Q15435),inactive: 0.042,inactive: 0.037,inactive: 0.012,inactive: -0.009,inactive: 0.031,inactive: -0.002,inactive: 0.016,inactive: -0.001,inactive: -0.05,inactive: 0.031,inactive: 0.045,inactive: -0.022,inactive: 0.123,inactive: -0.033,inactive: 0,inactive: -0.019,inactive: -0.067,inactive: -0.021,inactive: -0.013,inactive: -0.006

# A different layout for some results above.
Target	log2 fold change (erlotinib)	log2 fold change [1]	log2 fold change [2]	log2 fold change [3]	log2 fold change [4]	log2 fold change [5]	log2 fold change [6]	log2 fold change [7]	log2 fold change [8]	log2 fold change [9]	log2 fold change (IRAK-1-4 Inhibitor I)	log2 fold change (ibrutinib)	log2 fold change [10]	log2 fold change (ralimetinib)	log2 fold change [11]	log2 fold change [12]	log2 fold change [13]	log2 fold change (pinometostat)	log2 fold change [14]	log2 fold change [15]
PRSS21 (UniProt Q9Y6M0)	inactive: -0.031	inactive: -0.047	inactive: 0.002	inactive: -0.072	inactive: 0.038	inactive: -0.006	inactive: 0.006	inactive: 0.054	inactive: -0.009	inactive: -0.002	inactive: -0.059	inactive: 0.026	inactive: -0.018	inactive: 0.013	inactive: -0.015	inactive: -0.084	inactive: -0.028	inactive: 0.044	inactive: -0.036	inactive: 0.004
PPP1R12A (UniProt O14974)	inactive: 0.004	inactive: 0.044	inactive: 0.023	inactive: 0.023	inactive: -0.188	inactive: 0	inactive: 0.035	inactive: -0.067	inactive: -0.074	active: -0.485	inactive: -0.013	inactive: -0.022	active: -0.666	inactive: 0	inactive: 0	inactive: -0.119	inactive: -0.014	inactive: -0.003	active: -0.514	inactive: -0.01
PPME1 (UniProt Q9Y570)	inactive: 0.012	inactive: 0.065	inactive: 0.042	inactive: 0	inactive: 0.03	inactive: 0.009	inactive: 0.035	inactive: 0.009	inactive: -0.037	inactive: 0.026	inactive: 0.036	inactive: -0.019	inactive: -0.034	inactive: -0.067	inactive: 0	inactive: 0.053	inactive: -0.058	inactive: -0.01	inactive: -0.014	inactive: 0.038
